# Measured values reported in the supplement of paper PMC10849652.
# Sequences of proteins named here, by UniProt entry; tags and fusion partners are left off. A change or cut given only in a name is not applied to a line headed by its entry.
# UniProt O00194: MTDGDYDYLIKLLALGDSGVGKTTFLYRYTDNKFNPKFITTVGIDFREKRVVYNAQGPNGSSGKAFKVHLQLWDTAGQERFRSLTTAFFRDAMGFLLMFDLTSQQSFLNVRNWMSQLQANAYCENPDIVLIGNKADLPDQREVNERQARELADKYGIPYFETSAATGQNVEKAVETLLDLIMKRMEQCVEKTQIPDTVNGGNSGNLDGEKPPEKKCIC
# UniProt P54136: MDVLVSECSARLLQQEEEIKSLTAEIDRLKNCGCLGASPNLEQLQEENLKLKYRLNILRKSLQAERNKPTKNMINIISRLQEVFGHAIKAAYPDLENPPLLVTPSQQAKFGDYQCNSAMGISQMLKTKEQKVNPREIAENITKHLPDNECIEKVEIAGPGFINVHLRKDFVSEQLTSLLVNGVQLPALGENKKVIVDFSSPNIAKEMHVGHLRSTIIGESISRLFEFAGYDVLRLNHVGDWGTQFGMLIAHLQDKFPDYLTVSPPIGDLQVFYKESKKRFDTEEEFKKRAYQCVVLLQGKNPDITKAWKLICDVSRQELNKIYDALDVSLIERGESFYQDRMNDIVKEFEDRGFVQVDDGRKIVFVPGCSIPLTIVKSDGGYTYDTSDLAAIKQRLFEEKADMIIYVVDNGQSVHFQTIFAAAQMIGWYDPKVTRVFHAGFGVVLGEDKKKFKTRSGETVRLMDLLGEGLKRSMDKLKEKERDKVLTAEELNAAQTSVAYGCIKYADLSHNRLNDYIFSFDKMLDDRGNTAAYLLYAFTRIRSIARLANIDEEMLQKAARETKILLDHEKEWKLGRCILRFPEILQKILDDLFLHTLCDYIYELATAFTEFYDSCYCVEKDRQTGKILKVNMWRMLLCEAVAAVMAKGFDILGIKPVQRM
# UniProt Q8TEU7: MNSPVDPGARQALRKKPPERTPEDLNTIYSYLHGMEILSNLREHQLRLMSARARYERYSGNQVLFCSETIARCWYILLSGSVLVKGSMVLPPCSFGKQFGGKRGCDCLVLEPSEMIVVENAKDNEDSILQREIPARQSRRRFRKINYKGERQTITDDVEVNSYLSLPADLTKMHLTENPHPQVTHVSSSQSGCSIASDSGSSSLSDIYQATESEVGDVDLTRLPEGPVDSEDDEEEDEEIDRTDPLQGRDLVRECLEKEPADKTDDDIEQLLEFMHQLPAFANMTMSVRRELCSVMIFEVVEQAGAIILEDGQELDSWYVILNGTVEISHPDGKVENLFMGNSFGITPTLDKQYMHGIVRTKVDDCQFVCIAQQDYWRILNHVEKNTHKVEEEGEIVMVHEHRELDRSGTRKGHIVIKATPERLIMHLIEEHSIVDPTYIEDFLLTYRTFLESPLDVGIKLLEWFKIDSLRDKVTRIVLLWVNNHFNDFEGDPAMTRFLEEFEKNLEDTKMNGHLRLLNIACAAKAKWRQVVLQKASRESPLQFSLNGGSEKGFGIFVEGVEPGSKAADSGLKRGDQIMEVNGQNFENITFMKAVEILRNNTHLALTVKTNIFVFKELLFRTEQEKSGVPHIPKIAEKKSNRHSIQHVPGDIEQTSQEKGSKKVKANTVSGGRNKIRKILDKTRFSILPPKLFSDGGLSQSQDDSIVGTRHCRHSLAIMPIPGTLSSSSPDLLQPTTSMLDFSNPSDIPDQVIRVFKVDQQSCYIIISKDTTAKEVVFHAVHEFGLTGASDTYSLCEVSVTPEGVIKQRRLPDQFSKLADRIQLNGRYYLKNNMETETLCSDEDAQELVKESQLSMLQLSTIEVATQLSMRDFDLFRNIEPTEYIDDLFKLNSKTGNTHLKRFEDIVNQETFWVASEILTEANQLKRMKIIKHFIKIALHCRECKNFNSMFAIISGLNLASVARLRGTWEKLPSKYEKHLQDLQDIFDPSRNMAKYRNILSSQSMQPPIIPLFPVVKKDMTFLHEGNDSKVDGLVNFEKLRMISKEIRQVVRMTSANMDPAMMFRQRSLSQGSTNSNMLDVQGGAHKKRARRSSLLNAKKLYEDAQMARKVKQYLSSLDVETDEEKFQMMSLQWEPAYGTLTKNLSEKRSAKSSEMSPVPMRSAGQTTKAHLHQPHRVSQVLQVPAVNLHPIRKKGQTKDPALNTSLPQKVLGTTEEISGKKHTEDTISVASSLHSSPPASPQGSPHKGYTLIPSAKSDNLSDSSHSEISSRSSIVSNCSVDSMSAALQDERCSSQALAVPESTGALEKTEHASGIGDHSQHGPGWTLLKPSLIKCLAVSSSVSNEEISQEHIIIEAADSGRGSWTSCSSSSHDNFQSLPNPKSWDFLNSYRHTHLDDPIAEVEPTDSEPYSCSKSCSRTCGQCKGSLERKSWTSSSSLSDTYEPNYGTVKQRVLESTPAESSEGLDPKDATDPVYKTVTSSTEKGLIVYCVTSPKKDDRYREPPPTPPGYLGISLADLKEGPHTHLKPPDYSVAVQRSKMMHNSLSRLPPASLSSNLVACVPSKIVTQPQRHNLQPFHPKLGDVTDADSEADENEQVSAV
# UniProt Q15291, whole entry, looked up: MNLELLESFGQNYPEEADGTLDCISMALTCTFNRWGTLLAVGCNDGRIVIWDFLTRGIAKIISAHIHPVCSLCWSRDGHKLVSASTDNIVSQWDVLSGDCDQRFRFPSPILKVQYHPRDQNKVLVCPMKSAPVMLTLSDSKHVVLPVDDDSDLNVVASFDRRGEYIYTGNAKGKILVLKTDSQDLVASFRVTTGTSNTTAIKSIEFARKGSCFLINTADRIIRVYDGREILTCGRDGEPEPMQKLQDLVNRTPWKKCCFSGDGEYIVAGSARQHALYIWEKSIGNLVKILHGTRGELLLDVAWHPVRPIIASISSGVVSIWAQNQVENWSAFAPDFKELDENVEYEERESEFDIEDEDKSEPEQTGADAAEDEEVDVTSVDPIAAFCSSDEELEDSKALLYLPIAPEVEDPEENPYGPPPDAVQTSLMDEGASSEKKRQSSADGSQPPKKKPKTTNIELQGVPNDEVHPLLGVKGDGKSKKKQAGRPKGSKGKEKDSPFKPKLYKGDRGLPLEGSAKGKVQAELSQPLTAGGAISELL
# UniProt Q96S21: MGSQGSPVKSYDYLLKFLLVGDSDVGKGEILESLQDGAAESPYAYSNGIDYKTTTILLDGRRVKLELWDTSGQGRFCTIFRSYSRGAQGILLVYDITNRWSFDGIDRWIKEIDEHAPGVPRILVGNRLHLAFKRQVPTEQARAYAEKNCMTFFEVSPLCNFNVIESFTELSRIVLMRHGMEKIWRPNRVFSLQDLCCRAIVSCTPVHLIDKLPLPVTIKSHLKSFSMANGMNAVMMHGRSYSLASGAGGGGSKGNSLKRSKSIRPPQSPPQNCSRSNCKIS
# UniProt O15315: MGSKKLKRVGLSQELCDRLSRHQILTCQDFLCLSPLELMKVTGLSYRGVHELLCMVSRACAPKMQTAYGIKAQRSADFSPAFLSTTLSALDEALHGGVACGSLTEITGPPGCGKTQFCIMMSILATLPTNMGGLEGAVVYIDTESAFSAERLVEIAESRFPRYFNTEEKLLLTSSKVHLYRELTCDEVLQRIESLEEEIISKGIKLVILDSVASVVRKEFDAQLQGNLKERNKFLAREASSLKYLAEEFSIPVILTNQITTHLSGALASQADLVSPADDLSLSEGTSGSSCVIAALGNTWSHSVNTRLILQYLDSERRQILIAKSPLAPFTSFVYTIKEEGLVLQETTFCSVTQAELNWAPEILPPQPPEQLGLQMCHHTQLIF
# UniProt Q9NS91, whole entry, looked up: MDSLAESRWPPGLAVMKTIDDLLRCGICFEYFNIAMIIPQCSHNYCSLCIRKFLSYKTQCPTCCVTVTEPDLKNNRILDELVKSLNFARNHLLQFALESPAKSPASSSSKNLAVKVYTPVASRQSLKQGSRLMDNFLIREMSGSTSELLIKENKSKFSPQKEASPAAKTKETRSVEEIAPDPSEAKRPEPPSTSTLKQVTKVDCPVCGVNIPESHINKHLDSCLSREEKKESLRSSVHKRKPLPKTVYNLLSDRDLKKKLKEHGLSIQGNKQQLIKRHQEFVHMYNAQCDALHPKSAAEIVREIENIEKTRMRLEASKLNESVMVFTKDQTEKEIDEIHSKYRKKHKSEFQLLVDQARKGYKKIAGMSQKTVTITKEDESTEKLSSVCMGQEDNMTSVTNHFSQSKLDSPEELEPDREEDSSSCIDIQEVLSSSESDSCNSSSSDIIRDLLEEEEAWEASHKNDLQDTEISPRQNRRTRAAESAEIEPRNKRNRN
# UniProt Q9P0K7: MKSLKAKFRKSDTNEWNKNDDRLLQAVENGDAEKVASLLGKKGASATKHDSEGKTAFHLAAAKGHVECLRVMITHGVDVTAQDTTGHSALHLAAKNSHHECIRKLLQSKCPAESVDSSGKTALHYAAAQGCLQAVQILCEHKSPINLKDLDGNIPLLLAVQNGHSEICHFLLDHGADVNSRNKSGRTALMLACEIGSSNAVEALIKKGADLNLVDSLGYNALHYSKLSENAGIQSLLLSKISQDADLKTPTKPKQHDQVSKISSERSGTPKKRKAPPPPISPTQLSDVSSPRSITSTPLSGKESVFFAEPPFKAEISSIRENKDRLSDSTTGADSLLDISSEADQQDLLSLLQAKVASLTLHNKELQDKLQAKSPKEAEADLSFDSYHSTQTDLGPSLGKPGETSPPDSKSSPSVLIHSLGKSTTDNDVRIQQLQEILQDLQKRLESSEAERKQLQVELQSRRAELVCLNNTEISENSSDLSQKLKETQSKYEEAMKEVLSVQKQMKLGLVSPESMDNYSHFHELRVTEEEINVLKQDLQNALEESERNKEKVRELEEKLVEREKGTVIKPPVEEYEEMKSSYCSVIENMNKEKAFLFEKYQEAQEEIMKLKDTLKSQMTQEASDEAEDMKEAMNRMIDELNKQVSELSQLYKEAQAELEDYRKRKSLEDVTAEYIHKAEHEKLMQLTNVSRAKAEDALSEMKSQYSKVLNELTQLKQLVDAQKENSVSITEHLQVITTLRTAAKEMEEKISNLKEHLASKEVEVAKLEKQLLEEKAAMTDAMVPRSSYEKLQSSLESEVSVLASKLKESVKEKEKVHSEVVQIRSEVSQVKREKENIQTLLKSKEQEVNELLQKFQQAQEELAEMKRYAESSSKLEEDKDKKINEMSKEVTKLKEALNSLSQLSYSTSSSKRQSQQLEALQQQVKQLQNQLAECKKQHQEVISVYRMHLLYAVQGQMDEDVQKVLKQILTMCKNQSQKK
# UniProt Q9Y3L5: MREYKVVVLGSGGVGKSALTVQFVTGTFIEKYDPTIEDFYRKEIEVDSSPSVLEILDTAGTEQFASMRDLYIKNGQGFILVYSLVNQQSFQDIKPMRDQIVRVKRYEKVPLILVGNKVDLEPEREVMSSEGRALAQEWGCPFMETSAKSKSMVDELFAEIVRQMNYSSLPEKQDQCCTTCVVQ
# UniProt P61224: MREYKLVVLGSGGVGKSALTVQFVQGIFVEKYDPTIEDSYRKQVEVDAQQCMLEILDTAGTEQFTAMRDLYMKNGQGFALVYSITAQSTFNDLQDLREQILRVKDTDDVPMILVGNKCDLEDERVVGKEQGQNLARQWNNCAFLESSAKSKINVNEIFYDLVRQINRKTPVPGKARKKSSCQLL
# UniProt Q9BXF6: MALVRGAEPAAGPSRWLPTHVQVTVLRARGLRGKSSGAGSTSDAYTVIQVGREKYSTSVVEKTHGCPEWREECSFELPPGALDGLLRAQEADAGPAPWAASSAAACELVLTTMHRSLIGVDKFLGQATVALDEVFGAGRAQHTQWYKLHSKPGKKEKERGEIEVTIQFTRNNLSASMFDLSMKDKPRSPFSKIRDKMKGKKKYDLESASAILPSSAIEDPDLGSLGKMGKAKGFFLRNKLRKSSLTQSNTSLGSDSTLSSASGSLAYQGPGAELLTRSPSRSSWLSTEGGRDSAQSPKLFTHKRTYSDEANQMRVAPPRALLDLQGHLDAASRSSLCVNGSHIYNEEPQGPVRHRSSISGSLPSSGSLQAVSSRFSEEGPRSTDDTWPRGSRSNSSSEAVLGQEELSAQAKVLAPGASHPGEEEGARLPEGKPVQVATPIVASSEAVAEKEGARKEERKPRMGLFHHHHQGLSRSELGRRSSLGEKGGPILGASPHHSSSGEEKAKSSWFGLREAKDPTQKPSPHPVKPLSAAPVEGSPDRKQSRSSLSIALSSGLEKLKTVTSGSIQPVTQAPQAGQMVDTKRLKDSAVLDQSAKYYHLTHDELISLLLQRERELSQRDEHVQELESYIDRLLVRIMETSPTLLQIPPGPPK
# UniProt Q9H477: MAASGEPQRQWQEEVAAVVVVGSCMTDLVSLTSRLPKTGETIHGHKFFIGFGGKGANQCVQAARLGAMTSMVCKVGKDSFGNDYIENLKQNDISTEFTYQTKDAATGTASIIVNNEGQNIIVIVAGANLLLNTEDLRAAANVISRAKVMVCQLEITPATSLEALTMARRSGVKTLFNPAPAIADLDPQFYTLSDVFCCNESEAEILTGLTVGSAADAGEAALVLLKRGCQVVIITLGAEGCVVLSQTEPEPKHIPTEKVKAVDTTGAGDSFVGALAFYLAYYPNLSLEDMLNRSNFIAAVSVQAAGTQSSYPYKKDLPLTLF
# This is one part of the list.
# Key:
# Assay in all cases: log2 fold change, soluble protein after heating vs DMSO (PISA); higher = thermal stabilisation; K562 cells, 10 uM, 30 min; active = over 0.2 and 3.5 SD of the protein, either way, in both replicates (recomputed)
# [1] = compound: Cc1ccc(NC(=O)c2ccc(CN3CC[C@H](N(C)C)C3)c(C(F)(F)F)c2)cc1Nc1nccc(-c2cncnc2)n1 [bafetinib]
# Outline: (§1)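 For each measurement, 10 μM compound was applied for 30 min to K562 cells at 2×10^6 cells/mL. Aliquots were heated for 3 min across 48°C-58°C, pooled, and extracted in PBS with 0.5% NP-40 at 4°C; the supernatant after 21,000xg for 90 min was soluble protein. This was quantified by TMTpro 16plex LC-MS/MS with channel sums equalised, and thermal stability was reported relative to control samples from duplicates, on a log2 fold-change scale.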
# [2] = compound: Cc1cccc(CC(=O)N2CCc3c2ccc(-c2cn(C)c4ncnc(N)c24)c3F)n1
# Outline: as §1
# [3] = compound: Cc1cn(-c2cc(NC(=O)c3ccc(C)c(Nc4nccc(-c5cccnc5)n4)c3)cc(C(F)(F)F)c2)cn1 [nilotinib]
# Outline: as §1
# [4] = compound: Cc1nc(Nc2n[nH]c3c2CN(C(=O)N[C@H](CN(C)C)c2ccccc2)C3(C)C)c2sccc2n1
# Outline: as §1
# [5] = compound: Cc1nc(Nc2ncc(C(=O)Nc3c(C)cccc3Cl)s2)cc(N2CCN(CCO)CC2)n1 [dasatinib]
# Outline: as §1
# [6] = compound: Cc1ncc(-c2ccnc(Nc3ccc(S(C)(=O)=O)cc3)n2)n1C(C)C
# Outline: as §1
# [7] = compound: Cn1cc(-c2ccc3c(c2)CCN3C(=O)Cc2cccc(C(F)(F)F)c2)c2c(N)ncnc21
# Outline: as §1
# [8] = compound: Cn1cc(-c2ccc3nnc(C(F)(F)c4ccc5ncccc5c4)n3n2)cn1
# Outline: as §1
# [9] = compound: Cn1cncc1[C@@](N)(c1ccc(Cl)cc1)c1ccc2c(c1)c(-c1cccc(Cl)c1)cc(=O)n2C [tipifarnib]
# Outline: as §1
# [10] = compound: FC(F)(F)c1ccc(/C=C/c2nc(COc3ccc(CCCCn4ccnn4)cc3)co2)cc1 [mubritinib]
# Outline: as §1
# [11] = compound: NC(=O)Nc1cc(-c2cccc(F)c2)sc1C(=O)N[C@H]1CCCNC1
# Outline: as §1
# [12] = compound: NC(=O)c1cnc(N[C@@H]2CCCC[C@@H]2N)nc1Nc1cccc(-n2nccn2)c1
# Outline: as §1
# [13] = compound: NC1(c2ccc(-c3nc4ccn5c(=O)[nH]nc5c4cc3-c3ccccc3)cc2)CCC1
# Outline: as §1
# [14] = compound: NCC(=O)Nc1ccc(-n2nc(C(F)(F)F)cc2-c2ccc3c(ccc4ccccc43)c2)cc1
# Outline: as §1
# [15] = compound: Nc1ccccc1NC(=O)c1ccc(CNC(=O)OCc2cccnc2)cc1 [entinostat]
# Outline: as §1
# [16] = compound: O=C(CCCCCCC(=O)Nc1ccccc1)NO [vorinostat]
# Outline: as §1
# [17] = compound: O=C(CCCCCCNC(=O)c1cnc(N(c2ccccc2)c2ccccc2Cl)nc1)NO [citarinostat]
# Outline: as §1
# [18] = compound: O=C(O)c1ccc2c(c1)nc(Nc1cccc(Cl)c1)c1ccncc12 [silmitasertib]
# Outline: as §1
# [19] = compound: c1cc(OCCN2CCCCC2)cc(-c2n[nH]c3ccc(-c4nnc[nH]4)cc23)c1
# Outline: as §1
# [20] = compound: O=C1NC(=O)C(c2cnc3ccccn23)=C1c1cn2c3c(cc(F)cc13)CN(C(=O)N1CCCCC1)CC2
# Outline: as §1
Target,log2 fold change [1],log2 fold change [2],log2 fold change [3],log2 fold change [4],log2 fold change [5],log2 fold change [6],log2 fold change [7],log2 fold change [8],log2 fold change [9],log2 fold change [10],log2 fold change [11],log2 fold change [12],log2 fold change [13],log2 fold change [14],log2 fold change [15],log2 fold change [16],log2 fold change [17],log2 fold change [18],log2 fold change [19],log2 fold change [20]
RAB27B (UniProt O00194),inactive: -0.074,inactive: -0.061,inactive: 0.027,inactive: 0.015,inactive: 0.076,inactive: -0.016,inactive: 0.021,inactive: -0.039,inactive: 0.038,inactive: 0.025,inactive: 0.016,inactive: 0.092,inactive: 0.009,inactive: 0.046,inactive: 0.027,inactive: -0.12,inactive: -0.033,inactive: -0.025,inactive: -0.024,
RARS (UniProt P54136),inactive: 0.04,inactive: 0.069,inactive: -0.057,inactive: -0.021,inactive: -0.071,inactive: 0.053,inactive: -0.08,inactive: -0.125,inactive: -0.117,inactive: -0.116,inactive: 0.098,inactive: -0.076,inactive: 0.032,inactive: -0.01,inactive: 0.041,inactive: 0.115,inactive: 0.028,inactive: 0.107,inactive: -0.135,inactive: 0.325
RANBP3 isoform 2 (UniProt Q9H6Z4),inactive: -0.023,inactive: -0.036,inactive: 0.041,inactive: -0.03,,inactive: -0.019,,,,inactive: 0.008,inactive: -0.032,,inactive: 0.003,,inactive: 0.05,inactive: -0.055,inactive: 0.074,inactive: 0.005,inactive: -0.011,
"RAPGEF5, A0A590UJR0",inactive: 0.069,inactive: -0.06,inactive: -0.051,inactive: -0.002,inactive: -0.515,inactive: -0.001,inactive: -0.27,inactive: 0.108,inactive: -0.28,inactive: 0.05,inactive: 0.081,inactive: -0.196,inactive: -0.028,inactive: -0.449,inactive: 0.031,inactive: 0.117,inactive: 0.011,inactive: -0.082,inactive: 0.053,
RAPGEF6 isoform 4 (UniProt Q8TEU7),inactive: -0.054,inactive: -0.225,inactive: -0.065,inactive: -0.254,,inactive: -0.05,inactive: 0,inactive: -0.02,,inactive: 0,inactive: 0.062,inactive: -0.015,inactive: -0.227,inactive: 0.131,inactive: 0.034,inactive: 0.138,inactive: 0.059,inactive: 0.323,inactive: -0.086,inactive: 0.278
RBBP5 isoform 2 (UniProt Q15291),inactive: 0.248,inactive: -0.485,inactive: -0.036,inactive: 0.095,,inactive: -0.093,,inactive: -0.009,inactive: -0.076,inactive: -0.041,inactive: -0.123,inactive: -0.223,inactive: 0.151,inactive: 0.02,inactive: -0.249,inactive: 0.086,inactive: 0.033,inactive: 0.14,inactive: -0.153,inactive: -0.337
RAB40C (UniProt Q96S21),inactive: -0.19,inactive: -0.057,inactive: -0.108,inactive: 0.004,inactive: 0.059,inactive: 0.693,,inactive: 0.02,inactive: -0.059,inactive: -0.282,inactive: -0.006,inactive: 0.088,inactive: 0.079,inactive: 0.01,inactive: -0.017,inactive: 0.346,inactive: 0.013,inactive: 0.152,inactive: 0.631,inactive: -0.103
RAD51B (UniProt O15315),inactive: 0.034,inactive: -0.143,inactive: -0.023,inactive: -0.063,inactive: -0.107,inactive: -0.032,inactive: 0.004,,inactive: 0.053,inactive: 0.028,inactive: -0.009,inactive: -0.163,inactive: -0.241,,inactive: -0.078,inactive: 0.002,inactive: -0.084,inactive: -0.01,inactive: 0.042,inactive: 0.033
RAD18 (UniProt Q9NS91),inactive: 0.018,inactive: 0.027,inactive: -0.058,inactive: -0.053,inactive: -0.094,inactive: -0.182,inactive: -0.004,inactive: 0.119,inactive: -0.035,inactive: -0.046,inactive: 0.07,inactive: -0.066,inactive: 0.082,inactive: -0.159,inactive: 0.097,inactive: 0.181,,inactive: 0.087,,inactive: -0.243
RAI14 isoform 2 (UniProt Q9P0K7),inactive: -0.09,inactive: 0.125,inactive: -0.108,inactive: -0.046,inactive: -0.063,inactive: 0.004,inactive: -0.058,inactive: 0.062,inactive: -0.061,inactive: -0.013,inactive: -0.112,inactive: -0.197,inactive: -0.24,inactive: 0.037,inactive: 0.166,inactive: 0.08,,inactive: 0.175,,inactive: 0.064
RAP2C (UniProt Q9Y3L5),inactive: 0.115,inactive: 0.157,inactive: 0.181,inactive: 0.069,inactive: 0.018,inactive: 0.019,inactive: 0.047,inactive: -0.032,inactive: 0.086,inactive: 0.041,inactive: 0.072,active: 0.299,inactive: 0.133,inactive: 0.118,inactive: -0.045,inactive: 0.051,inactive: 0.056,inactive: -0.04,inactive: -0.061,inactive: -0.008
RBM14 (UniProt Q96PK6),inactive: -0.004,inactive: -0.165,,,inactive: -0.094,,inactive: -0.051,inactive: -0.05,inactive: 0.228,inactive: -0.077,,inactive: -0.149,inactive: 0.288,inactive: 0.1,,inactive: -0.042,inactive: 0.047,inactive: -0.044,inactive: -0.05,
RAP1B (UniProt P61224),inactive: 0.014,inactive: -0.024,inactive: 0.062,inactive: 0.008,inactive: 0.038,inactive: 0.001,inactive: -0.027,inactive: 0.006,inactive: 0.02,inactive: -0.016,inactive: -0.009,inactive: 0.067,inactive: 0.052,inactive: 0.057,inactive: -0.035,inactive: 0.003,inactive: -0.005,inactive: -0.015,inactive: 0.032,inactive: 0.012
RBM28 (UniProt Q9NW13),inactive: -0.191,,,,,,inactive: 0.012,inactive: -0.009,inactive: 0.263,inactive: 0.109,inactive: 0.122,inactive: 0.009,inactive: -0.252,,inactive: -0.005,,inactive: -0.022,inactive: 0.137,inactive: -0.09,inactive: 0.054
RAB28 (UniProt P51157),,inactive: -0.031,,,inactive: 0.099,,inactive: -0.157,inactive: 0.002,,,,inactive: -0.071,,inactive: -0.003,,inactive: -0.016,,,,
RAB11FIP5 (UniProt Q9BXF6),,,,,,,,inactive: -0.025,inactive: 0.128,,,,,,,,,,,
RAP1B (UniProt F5GZG1),inactive: 0.017,,inactive: 0.111,inactive: 0.028,inactive: 0.178,inactive: -0.217,inactive: -0.067,,inactive: 0.171,inactive: 0.04,inactive: -0.036,inactive: -0.063,inactive: -0.013,inactive: -0.005,inactive: -0.106,,inactive: -0.125,inactive: 0.062,inactive: -0.101,inactive: -0.103
RBKS (UniProt Q9H477),,,,,,,,inactive: -0.019,inactive: 0.308,inactive: 0.008,,inactive: -0.042,inactive: -0.055,inactive: -0.041,,,inactive: 0.009,inactive: 0.306,inactive: -0.068,

# Single values from the results shown:
# RAD18 (UniProt Q9NS91) | log2 fold change [16]: inactive: 0.181
# RAI14 isoform 2 (UniProt Q9P0K7) | log2 fold change [4]: inactive: -0.046
